PubChem BioAssay AID1224830 | NIAID | 2016

Assay: 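Regulators of TLR4 signalling towards TNF-alpha in macrophage-like cells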 (primary screen)
Cells: human THP-1 monocytic leukaemia cells, TNF dual-luciferase reporter clone, PMA-differentiated to macrophage-like cells
Knock-down reagent: siRNA pool against human genes, 50 nM
Time to read-out: LPS for 4 h, given about 3 days after siRNA transfection
Conditions: bacterial LPS (TLR4 ligand), 10 ng/ml
Measurement: 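Ratio of firefly to renilla light, scaled to the plate median and expressed as a robust z-score per replicate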
Reading the numbers: TNF reporter robust z-score: higher = stronger TNF reporter response to LPS
Active means: 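a well is active when its z-score exceeds 2.8 or falls below -1.5; control wells carry no call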
In all, the deposit lists about 18,000 reagents; below is a part drawn at random. In the full data, about 2,900 (16%) got an active call. 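Calls are made per well; low scores hint the gene aids the LPS response, high scores that it dampens it.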 Repeated entries: four replicate wells of each siRNA pool. No sequences are given here.

gene | TNF reporter robust z-score | activity call
URGCP | 0.47 | inactive
URGCP | 1.77 | inactive
URGCP | 1.18 | inactive
URGCP | -1 | inactive
MIMS2 | 0.61 | inactive
MIMS2 | -0.06 | inactive
MIMS2 | -0.18 | inactive
MIMS2 | -0.89 | inactive
ASB15 | 1.61 | inactive
ASB15 | 0.44 | inactive
ASB15 | -0.69 | inactive
ASB15 | 0.08 | inactive
LRPAP1 | 0.26 | inactive
LRPAP1 | 0.42 | inactive
LRPAP1 | 1.31 | inactive
LRPAP1 | -0.83 | inactive
ZNF550 | -1.02 | inactive
ZNF550 | 2.1 | inactive
ZNF550 | 0.96 | inactive
ZNF550 | -0.63 | inactive
NAF1 | -0.82 | inactive
NAF1 | -0.45 | inactive
NAF1 | -0.54 | inactive
NAF1 | -0.47 | inactive
ZNF75D | -0.27 | inactive
ZNF75D | 0.63 | inactive
ZNF75D | 1.11 | inactive
ZNF75D | 0.56 | inactive
CEP57 | -1.21 | inactive
CEP57 | -0.59 | inactive
CEP57 | -0.72 | inactive
CEP57 | -0.33 | inactive
KCNK4 | -0.03 | inactive
KCNK4 | 0.62 | inactive
KCNK4 | 0.28 | inactive
KCNK4 | -0.21 | inactive
RAPGEF1 | 3.88 | active
RAPGEF1 | 3.67 | active
RAPGEF1 | 3.04 | active
RAPGEF1 | 2.97 | active
ARHGAP42 | -0.55 | inactive
ARHGAP42 | -0.44 | inactive
ARHGAP42 | 1.08 | inactive
ARHGAP42 | 1.98 | inactive
LRRC63 | -1 | inactive
LRRC63 | -1.05 | inactive
LRRC63 | -1.33 | inactive
LRRC63 | -0.1 | inactive
ITGA6 | 3.37 | active
ITGA6 | 2.66 | inactive
ITGA6 | 0 | inactive
ITGA6 | 1.93 | inactive
ZNF273 | 0.66 | inactive
ZNF273 | 1.54 | inactive
ZNF273 | -0.49 | inactive
ZNF273 | -0.73 | inactive
COX6C | -1.01 | inactive
COX6C | -0.51 | inactive
COX6C | -0.91 | inactive
COX6C | 0.31 | inactive
PPM1E | -0.08 | inactive
PPM1E | 0.45 | inactive
PPM1E | -0.61 | inactive
PPM1E | 2.33 | inactive
CXADR | -0.15 | inactive
CXADR | 0.86 | inactive
CXADR | 0.47 | inactive
CXADR | 0.62 | inactive
TIRAP | -2.11 | active
TIRAP | -2.17 | active
TIRAP | -2.21 | active
TIRAP | -1.96 | active
ADAMTS14 | -0.11 | inactive
ADAMTS14 | -0.24 | inactive
ADAMTS14 | 1.22 | inactive
ADAMTS14 | 2.87 | active
